According to PubChem BioAssay AID743255 (National Center for Advancing Translational Sciences (NCATS), 2014):
Out of some 390,000 compounds screened, about 910 (0.23%) were called active. Inconclusive results, whose numbers are uncertain, are shown with a selection of clear calls. The call rests on the fitted dose curve; in most records, active means well fitted inhibition curve with a large enough effect; inconclusive means small, poorly fitted or top-dose-only effect; inactive means no such curve, though single readings can be large or run the other way. Potencies of inconclusive entries are doubtful fits and often do not repeat.

The chains behind the UniProt entries cited, without tags or fusion partners. Where a name states a change or a piece, a line headed by the entry shows the natural chain unless it says otherwise.
UniProt O94782: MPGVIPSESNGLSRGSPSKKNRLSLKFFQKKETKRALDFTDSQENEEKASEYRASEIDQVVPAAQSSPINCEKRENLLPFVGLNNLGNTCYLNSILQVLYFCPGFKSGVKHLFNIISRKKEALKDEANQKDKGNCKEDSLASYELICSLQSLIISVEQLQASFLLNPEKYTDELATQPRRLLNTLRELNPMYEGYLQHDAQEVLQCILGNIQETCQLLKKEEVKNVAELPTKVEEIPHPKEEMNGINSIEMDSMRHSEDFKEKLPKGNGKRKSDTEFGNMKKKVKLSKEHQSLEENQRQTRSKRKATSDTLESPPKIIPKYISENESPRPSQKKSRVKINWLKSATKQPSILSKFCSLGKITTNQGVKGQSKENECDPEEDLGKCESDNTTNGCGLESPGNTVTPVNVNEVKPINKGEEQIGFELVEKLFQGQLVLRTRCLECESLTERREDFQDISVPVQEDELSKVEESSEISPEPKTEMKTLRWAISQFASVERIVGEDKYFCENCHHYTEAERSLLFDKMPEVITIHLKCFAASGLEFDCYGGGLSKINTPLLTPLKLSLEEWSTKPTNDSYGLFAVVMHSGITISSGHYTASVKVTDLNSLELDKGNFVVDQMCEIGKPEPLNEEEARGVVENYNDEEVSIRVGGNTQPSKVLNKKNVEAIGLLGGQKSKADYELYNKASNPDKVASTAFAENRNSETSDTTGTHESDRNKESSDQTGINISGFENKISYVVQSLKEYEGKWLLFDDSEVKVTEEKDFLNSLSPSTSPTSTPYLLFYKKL

target: Ubiquitin carboxyl-terminal hydrolase 1 (Homo sapiens) (UniProt O94782); assay: Inhibitors of USP1/UAF1: Primary Screen; conditions: recombinant USP1/UAF1, Ub-Rhodamine cleavage fluorescence; activity change, negative = inhibition: at 57.1 µM (top of the series); further: nearly all actives have a fitted effect of over 60% in size
Summary of the method: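 High-throughput fluorogenic screen: 1nM USP1/UAF1 complex, Ub-Rho substrate 150nM final, 50mM HEPES pH 7.8 with 0.5mM EDTA, 0.1 mg/ml BSA, 1mM TCEP and 0.01% Tween-20.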
On the % scale 0 is the no-effect control and ±100 the full control effect; potency means the concentration at half of the fitted maximal effect.

Row | Compound | Potency | activity change, negative = inhibition
1 | O=C(NCCc1c[nH]c2ccccc12)OCCCCOC(=O)NCCc1c[nH]c2ccccc12 | inconclusive: 70.8 µM [inhibitor, partial curve, poor fit] | 
2 | CCOC(=O)c1ccccc1Nc1cc(C)nc2nc(-c3ccco3)nn12 | inconclusive: 0.282 µM [inhibitor, full curve, poor fit] | 
3 | Cc1cccc(C(=O)Nc2cc3c(cc2N2CCOCC2)n(C)c(=O)n3C)c1 | inconclusive: 44.7 µM [inhibitor, partial curve, poor fit] | 
4 | COc1ccc(OC)c(/C=C(\C)C(=O)c2c(C)cc(C)[nH]c2=O)c1 | inconclusive: 3.98 µM [inhibitor, partial curve] | 
5 | O=C(NCCc1ccccc1)c1c(O)c2cccc3c2n(c1=O)CC3 |  | inactive: 1.67%
6 | COc1ccc(OC)c2c1cc(C(=O)N[C@H](C(=O)N1CCC(C(=O)O)CC1)C(C)C)n2C | inconclusive: 25.1 µM [inhibitor, partial curve] | 
7 | Cc1ccc(N(C)C(=O)n2cnc3ccccc32)cc1 | inconclusive: 28.2 µM [inhibitor, partial curve] | 
8 | CCN(c1ccccc1)S(=O)(=O)c1ccc(Oc2ccccc2C(C)=O)nc1 | inconclusive: 0.251 µM [inhibitor, full curve, poor fit] | 
9 | CC(C)N(C(=O)c1cc2c(Cl)nc3ccccc3c2s1)C1CCCCC1 | inconclusive: 56.2 µM [inhibitor, partial curve, poor fit] | 
10 | CCCCCCNC(=O)CNC(=S)N(Cc1cccs1)C1CCCCC1 | inconclusive: 44.7 µM [inhibitor, partial curve] | 
11 | C[N+]1([O-])[C@@H]2Cc3cc4c(cc3[C@@H]1Cc1cc3c(cc12)OCO3)OCO4 (stereo partly specified) | inconclusive: 50.1 µM [inhibitor, partial curve, poor fit] | 
12 | Cc1ccc(S(=O)(=O)c2nnn3c2nc(NCc2cccs2)c2sccc23)cc1C |  | inactive: -16.6%
13 | O=C1NN(c2ccccc2)C(=O)/C1=C/c1ccc(-c2cccc(C(=O)O)c2)o1 | inconclusive: 50.1 µM [inhibitor, partial curve, poor fit] | 
14 | CCN1CCc2c(sc(NC(=O)c3cc4ccccc4cc3OC)c2C(N)=O)C1 | inconclusive: 31.6 µM [inhibitor, partial curve] | 
15 | CCOCCCNC(=O)Nc1cc(C(=O)NCc2ccc(C(C)C)cc2)ccc1N1CCCC1 | inconclusive: 50.1 µM [inhibitor, partial curve, poor fit] | 
16 | CCN1/C(=C2\C(=O)N(c3ccccc3)N=C2C)C=Cc2cc(C)ccc21 |  | inactive: -7.58%
17 | Cc1ccc(N2CCN(S(=O)(=O)c3ccc4oc(=O)c5ncn(C)c5c4c3)CC2)c(C)c1 | inconclusive: 11.2 µM [inhibitor, partial curve, poor fit] | 
18 | Cc1cc(CNC(=O)Cc2ccc(F)cc2)c2ccccc2n1 | inconclusive: 0.794 µM [inhibitor, full curve] | 
19 | CCCc1c(C)[nH]c2ccc(C(=O)O)cc2c1=S | inconclusive: 35.5 µM [inhibitor, partial curve] | 
20 | O=S(=O)(Nc1cccc(-c2ccc(N3CCCCCC3)nn2)c1)c1ccccc1 | inconclusive: 8.91 µM [inhibitor, full curve] | 
21 | Cc1ccc(S(=O)(=O)NCCc2sc3nc(-c4ccccc4)nn3c2C)cc1C |  | inactive: 3.51%
22 | CCc1nc2onc(C)c2c(=O)n1CC(=O)O | inconclusive: 6.31 µM [inhibitor, partial curve] | 

Row | Compound | Potency | activity change, negative = inhibition
23 | Cc1cc(NC(=O)CN2CCN(c3ccccn3)CC2)ccc1Br |  | inactive: -8.75%
24 | COc1ccc(NC(=O)NC(=O)c2ccccc2)cc1 |  | inactive: 1.39%
25 | CN1C[N+]([O-])=C(c2ccccc2)C1(C)C | inconclusive: 0.794 µM [inhibitor, full curve, poor fit] | 
26 | Cc1ccc(S(=O)(=O)NC(CC(=O)OCc2ccccc2)C(=O)OCc2ccccc2)cc1 (stereo unspecified) | inconclusive: 44.7 µM [inhibitor, partial curve] | 
27 | Cc1ccc(NC(=O)CN2C(=O)CSc3ccc(S(=O)(=O)N4CCCC4)cc32)c(C)c1 | inconclusive: 4.47 µM [inhibitor, single point] | 
28 | COc1ccc(C(=O)Oc2c(Sc3ccccc3)c(C)nn2-c2ccccc2)cc1OC | inconclusive: 0.0631 µM [inhibitor, full curve] | 
29 | Cc1ccccc1NC(=O)CN1C(=O)S/C(=C\c2cccn2-c2cccc(C(=O)O)c2)C1=O | inconclusive: 35.5 µM [inhibitor, single point] | 
30 | CCCOc1ccc(Nc2cc(C)nc(C)n2)cc1 |  | inactive: -16.4%
31 | CCOc1ccc(-c2cc(C(=O)OC)nc3c2c(=O)n(C)c(=O)n3C)cc1 |  | inactive: -15.9%
32 | CCOC(=O)c1ccc2c(c1)N(Cc1cccc(C(F)(F)F)c1)C(=O)c1ccccc1S2(=O)=O |  | inactive: -28.3%
33 | CCCCNc1ccc2c3c(cccc13)C(=O)N(CCCC)C2=O | active: 25.1 µM | 
34 | COc1ccccc1NC(=O)C1=C(C)Nc2nc3ccccc3n2C1c1cccc(Br)c1 (stereo unspecified) | inconclusive: 0.282 µM [inhibitor, full curve] | 
35 | CC1CCN(S(=O)(=O)c2ccc3c(c2)c(=O)c(C(=O)NCc2ccc(Cl)cc2)cn3C)CC1 |  | inactive: -12.7%
36 | O=c1c(N2CCN(c3cccc(C(F)(F)F)c3)CC2)csc2ccccc12 | inconclusive: 100 µM [inhibitor, partial curve] | 
37 | CCOc1ccc(Nc2nc(Cc3nnc(SCC(=O)O)o3)cs2)cc1 | inconclusive: 3.16 µM [inhibitor, partial curve] | 
38 | O=C(O)c1ccccc1Nc1ccccc1 | inconclusive: 35.5 µM [inhibitor, single point] | 
39 | Cc1ccc(NNC(=O)Nc2ccc(Cl)cc2)nn1 |  | inactive: -16.1%
40 | O=C(Nc1cccc(Cl)c1)N1CCN2C(=O)c3ccccc3C12c1ccccc1 (stereo unspecified) |  | inactive: -23.7%
41 | COc1ccccc1NC(=O)C(C)OC(=O)CCNS(=O)(=O)c1ccc(C)c(C)c1 (stereo unspecified) | inconclusive: 6.31 µM [inhibitor, partial curve, poor fit] | 
42 | C/C(=N\Nc1ncnc2sc(C)c(C)c12)c1ccccn1 | inconclusive: 35.5 µM [inhibitor, partial curve, poor fit] | 
43 | COc1ccc(-c2c3c(=O)n(C)c(=O)n(C)c3cn2-c2cccc(N)c2)cc1 | inconclusive: 50.1 µM [inhibitor, single point] | 
44 | CCOC(=O)CC(NC(=O)CCc1c(C)nc2c(-c3ccccc3)c(C)nn2c1C)c1ccc(C)cc1 (stereo unspecified) |  | inactive: -23.3%

Row | Compound | Potency | activity change, negative = inhibition
45 | C[C@@H](NC(=O)c1nc[nH]c1C(=O)N[C@@H](Cc1ccccc1)C(=O)OCc1ccccc1)c1ccccc1 | inconclusive: 39.8 µM [inhibitor, partial curve] | 
46 | Cn1c(=O)c2c(nc(SCC(=O)NCc3ccco3)n2C)n(C)c1=O | inconclusive: 44.7 µM [inhibitor, single point] | 
47 | Cc1ccc(N(Cc2cccs2)C(=O)c2ccccc2)cc1 | inconclusive: 50.1 µM [inhibitor, partial curve, poor fit] | 
48 | Cc1nn(-c2ccccc2)c2c1N(CC(=O)NCc1ccc(N(C)C)cc1)C(=O)CS2 | inconclusive: 5.62 µM [inhibitor, partial curve] | 
49 | Cc1sc2ncnc(N/N=C/c3cccc(O)c3)c2c1C |  | inactive: -22.4%
50 | N#CC1=C(N)SC(N)=C(C#N)C1c1ccnc2ccccc12 | inconclusive: 31.6 µM [inhibitor, partial curve] | 
51 | Cc1cc(-c2ccc([N+](=O)[O-])cc2)cc(C)n1 |  | inactive: -3.25%
52 | Cn1c(SCC(N)=O)nc2c([nH]c3ccccc32)c1=O |  | inactive: -13.4%
53 | CCOC(=O)C1CCN(C2=C(NS(=O)(=O)c3ccc(Br)cc3)C(=O)c3ccccc3C2=O)CC1 | inconclusive: 28.2 µM [inhibitor, partial curve] | 
54 | CCCCN1C(=O)C2ON(c3ccccc3C)C(c3ccco3)C2C1=O (stereo unspecified) | inconclusive: 3.98 µM [inhibitor, partial curve] | 
55 | CCC(C)(C)C(=O)Nc1ncc(S(=O)(=O)c2ccc([N+](=O)[O-])cc2)s1 |  | inactive: -7.33%
56 | c1ccc(C2=Nc3ccccc3NC(c3ccccc3)C2)cc1 (stereo unspecified) | inconclusive: 39.8 µM [inhibitor, partial curve, poor fit] | 
57 | O=C1NCN(C2CCCCC2)CN1 | inconclusive: 5.62 µM [inhibitor, single point] | 
58 | COc1ccc(/C=N/NS(=O)(=O)c2ccc(F)cc2)cc1CN1CCSCC1 |  | inactive: -5.2%
59 | Cc1ccc(C)c(Nc2nn3c(=O)c4ccc(C(=O)NCCC5=CCCCC5)cc4nc3s2)c1 | inconclusive: 8.91 µM [inhibitor, partial curve] | 
60 | CCOc1ccc(OCc2ccc(C(=O)Nc3cc(OC)c(OC)c(OC)c3)o2)cc1 | inconclusive: 10 µM [inhibitor, partial curve, poor fit] | 
61 | COc1ccccc1N1CC(C(=O)OC(C)C(=O)Nc2ccc(F)cc2)CC1=O (stereo unspecified) | inconclusive: 7.94 µM [inhibitor, partial curve, poor fit] | 
62 | O=C(O)c1ccccc1C(=O)c1ccc2c(c1)N(Cc1cccc(F)c1)C(=O)CO2 |  | inactive: -25.6%
63 | CCN(CC)C(=O)C1CCN(CC2CC=CCC2)CC1 (stereo unspecified) |  | inactive: 0.425%
64 | CCOC(=O)C1C(C(C)=O)=C(c2ccccc2)c2ccccc2N1S(=O)(=O)C(F)(F)F (stereo unspecified) | inconclusive: 89.1 µM [inhibitor, partial curve, poor fit] | 
65 | COc1cccc(-n2nnc3c(=O)n(CC(=O)OCc4ccccc4)cnc32)c1 | inconclusive: 31.6 µM [inhibitor, partial curve, poor fit] | 
66 | COc1cc(C2CC(=O)c3c([nH]c(C(=O)OCc4ccc(C)cc4)c3C)C2)cc(OC)c1OC (stereo unspecified) | inconclusive: 8.91 µM [inhibitor, partial curve, poor fit] | 

Fetched one by one from the entries so far (2):
Row | Compound | Potency | activity change, negative = inhibition
24 | COc1ccc(NC(=O)NC(=O)c2ccccc2)cc1 |  | inactive: 1.39%
39 | Cc1ccc(NNC(=O)Nc2ccc(Cl)cc2)nn1 |  | inactive: -16.1%
